In all, about 580,000 compounds went through this assay and about 6,100 (1.1%) were called active. Inconclusive results (about 15%) are left out. The call rests on the fitted dose curve; in most records, active means well fitted inhibition curve with a large enough effect; inconclusive means small, poorly fitted or top-dose-only effect, or another doubt; inactive means no such curve, though single readings can be large or run the other way. Only a part is listed here, and it is no random draw. The source gives no active or inactive call for entries shown without one.
On the % scale 0 is the no-effect control and ±100 the full control effect; potency means the concentration at half of the fitted maximal effect.

Amino acid sequences for entries named in this document (tags omitted). A change or cut given only in a name is not applied to a line headed by its entry.
UniProt P18054: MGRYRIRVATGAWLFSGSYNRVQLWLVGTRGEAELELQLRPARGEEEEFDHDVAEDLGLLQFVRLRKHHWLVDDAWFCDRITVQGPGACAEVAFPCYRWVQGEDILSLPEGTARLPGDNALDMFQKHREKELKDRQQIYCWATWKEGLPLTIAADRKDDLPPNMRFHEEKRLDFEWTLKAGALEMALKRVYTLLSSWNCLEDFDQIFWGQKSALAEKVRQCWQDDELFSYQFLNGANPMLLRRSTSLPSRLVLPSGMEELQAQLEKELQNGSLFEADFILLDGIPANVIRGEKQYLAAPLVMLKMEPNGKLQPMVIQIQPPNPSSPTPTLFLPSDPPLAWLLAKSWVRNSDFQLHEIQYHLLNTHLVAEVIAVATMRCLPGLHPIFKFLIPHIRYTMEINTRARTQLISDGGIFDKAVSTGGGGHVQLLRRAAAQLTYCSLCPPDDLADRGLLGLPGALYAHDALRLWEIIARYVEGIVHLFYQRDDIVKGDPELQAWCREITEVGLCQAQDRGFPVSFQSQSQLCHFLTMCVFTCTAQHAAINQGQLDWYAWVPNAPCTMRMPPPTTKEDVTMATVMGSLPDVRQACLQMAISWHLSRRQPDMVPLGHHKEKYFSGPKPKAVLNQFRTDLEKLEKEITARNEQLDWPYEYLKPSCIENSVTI

The assay deals with Polyunsaturated fatty acid lipoxygenase ALOX12 (Homo sapiens) (UniProt P18054). The assay can be described thus: Primary qHTS assay for inhibitors of human arachidonate 12S-lipoxygenase (ALOX12): Round 2. Particulars: purified 12hLO, xylenol orange hydroperoxide absorbance; activity change, negative = inhibition: at 0.00344 µM (top of the series) unless noted. The essentials:
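Hydroperoxide product was detected by ferrous iron/xylenol orange as the 573 to 405 nm absorbance ratio. Arachidonic acid at 40 uM (final) was turned over for 30 min at room temperature by 150 nM human 12hLO, pH 7.0 Hepes buffer, after 15 min compound preincubation.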
Take `CCN(CC)C(=O)c1cccc(C)c1`: the activity change, negative = inhibition was -28.9%.
On the same count and under the same terms, the figure for `CC(C)(C)NCC(O)COc1ccc(NC(=O)NC2CCCCC2)cc1` (stereo not given) is -9.43%; for `CC(=O)Oc1c(C)c(C)c2c(c1C)CC[C@@](C)(CCC[C@H](C)CCC[C@H](C)CCCC(C)C)O2` it is 47.7%.
For `Oc1cccc(Nc2nc(-c3ccccc3)nc3ccccc23)c1`, the Potency was active: 39.8 µM.
Consider `O=C(O)CCCCC(=O)O`, for which the activity change, negative = inhibition was determined as 21.6%.
Still for that read-out and setting: the figure for `CC(O)C(=O)O` (stereo not given) is -33.2%.
In the case of `NC(=S)N/N=C/c1cccnc1`, the activity change, negative = inhibition is -21.7%.
Regarding `OC(CN1CCC(Cc2ccc(F)cc2)CC1)c1ccc(Cl)cc1` (stereo not given), the activity change, negative = inhibition is -12.2%.
Take `FC(F)(F)c1ccccc1-c1nc(NCc2cccnc2)c2ccccc2n1`: the Potency was active: 44.7 µM.
Turning to `CC(=O)Oc1ccccc1C(=O)O`, the activity change, negative = inhibition is 12.9%.
As to `N#Cc1c(SCCN2CCOCC2)nc(N2CCCCC2)c2c1CCCC2`, the Potency is active: 0.794 µM.
On the same count and under the same terms, under `COc1ccc(CN2CCNC(=O)C2CC(=O)NCCC2=CCCCC2)c(F)c1` (stereo not given) stands active: 11.2 µM.
Consider `CC1=C(/C=C/C(C)=C/C=C/C(C)=C/C(=O)O)C(C)(C)CCC1`, for which the activity change, negative = inhibition was -15.2%.
Still for that read-out and setting: under `COc1cc(C(=O)NCCCCCC(=O)O)cc(OC)c1OC` stands -24.5%.
Still for that read-out and setting: the figure for `Nc1nnnn1-c1ccccc1` is 21.1%; for `Cc1ncc(CO)c(CO)c1O` it is -5.85%.
Consider `CC(=O)Oc1ccc(C(=C2CCCCC2)c2ccc(OC(C)=O)cc2)cc1`, for which the activity change, negative = inhibition is -12.8%.
On to `CC(=O)NC1(C)CCN(Cc2cccc(-c3cccc(Cl)c3)c2)C1` (stereo not given), for which the Potency was active: 39.8 µM.
On the same count and under the same terms, under `O=C(c1ccc(F)cc1Cl)N1CCC2(CC1)NC(=O)N(c1ccccc1Cl)N2` stands active: 1.41 µM.
On to `N[C@@H]1CONC1=O`, for which the activity change, negative = inhibition turned out to be 24.5%.
Regarding `CN(CCOc1ccccc1)C(=O)c1cc(-c2ccco2)nc2ccccc12`, the Potency was active: 31.6 µM.
For the compound `N[C@@H](Cc1c[nH]c2ccc(O)cc12)C(=O)O`, the activity change, negative = inhibition is -8.04%.
Still for that read-out and setting: the figure for `C[N+](C)(C)CCCCCCCCCC[N+](C)(C)C` is 2.15%.
Regarding `COc1ccc2c(c1)c1ccc3c(c1n2C)C(=O)C=CC3=O`, the Potency is active: 0.708 µM.
Regarding `CN1CCC(Nc2ncc3ncnc(Nc4ccc(F)c(Cl)c4)c3n2)CC1`, the activity change, negative = inhibition is -0.789%.
Turning to `O=C1C(c2[nH]c3ccccc3c2O)=Nc2ccccc21`, the activity change, negative = inhibition is 4.16%.
Still for that read-out and setting: the figure for `Nc1ccc(S(=O)(=O)Nc2cnc3ccccc3n2)cc1` is 49.7%; for `COC(=O)N[C@H](C(=O)N[C@@H](Cc1ccccc1)[C@@H](O)CN(Cc1ccc(-c2ccccn2)cc1)NC(=O)[C@@H](NC(=O)OC)C(C)(C)C)C(C)(C)C` it is 19.9%.
On to `CC(C)(C)c1ccc(C(=O)CCCN2CCC(OC(c3ccccc3)c3ccccc3)CC2)cc1`, for which the activity change, negative = inhibition came out at 27.8%.
For the compound `CC(Cc1ccccc1)=NNS(=O)(=O)c1ccc([N+](=O)[O-])cc1`, the Potency was active: 20 µM.
Regarding `COc1cccc(C(c2sc3nc(C)nn3c2O)N2CCc3ccccc3C2)c1` (stereo not given), the Potency is active: 31.6 µM.
Same read-out and setting: the figure for `COc1cc(OC)c(C=NNC(=S)NC23CC4CC(CC(C4)C2)C3)c(OC)c1` is active: 12.6 µM.
In the case of `CCN1/C(=C\c2ccc3cc(C)ccc3[n+]2CC)Sc2cc(C)c(C)cc21`, the Potency was active: 25.1 µM.
As for `Cc1cc(O)c(C(C)C)cc1Cl`, the activity change, negative = inhibition is -9.49%.
On the same count and under the same terms, under `CO/N=C(\C(=O)O)c1csc(NC(=O)CCl)n1` stands -21.8%.
`Cc1cccc([C@H]2[C@@H]3C=CCC[C@@H]3C(=O)N2Cc2ccccc2)c1`: the Potency is active: 28.2 µM.
The same measure, in the same setting: under `CCOc1cc(N2CCOCC2)c(OCC)cc1NC(=O)CSc1ncccc1C(=O)O` stands active: 11.2 µM.
For the compound `CCOC(=O)[C@H](CCc1ccccc1)N[C@@H](C)C(=O)N(CC(=O)O)C1Cc2ccccc2C1`, the activity change, negative = inhibition came out at 15.8%.
Take `COc1cc2nc(Cl)nc(N)c2cc1OC`: the activity change, negative = inhibition was 14.9%.
Regarding `CC[C@H](C)C(=O)O[C@H]1C[C@@H](C)C=C2C=C[C@H](C)[C@H](CC[C@@H]3C[C@@H](O)CC(=O)O3)[C@H]21`, the activity change, negative = inhibition came to 27.6%.
Same read-out and setting: under `Clc1ccc(C(Cn2ccnc2)OCc2ccc(Sc3ccccc3)cc2)c(Cl)c1` (stereo not given) stands -8.82%.
As for `CN(C)CCOC(c1ccccc1)c1ccc(Br)cc1` (stereo not given), the activity change, negative = inhibition was -12.6%.
Still for that read-out and setting: the figure for `COC(=O)C1=C(C)NC(C)=C(C(=O)OCCCN2CCC(c3ccccc3)(c3ccccc3)CC2)C1c1cccc([N+](=O)[O-])c1` (stereo not given) is 25.1%.
As to `Cc1cccc(C)c1NC(=O)CN(CC(=O)O)CC(=O)O`, the activity change, negative = inhibition was 9.3%.
Same read-out and setting: under `COC(=O)c1cc(Cl)ccc1NS(=O)(=O)C(F)(F)F` stands -16.3%; under `Oc1cccc2[nH]ccc12`, 3.48%.
As for `CO/N=C(/C(=O)N[C@@H]1C(=O)N2C(C(=O)[O-])=C(C[n+]3ccn4ncccc43)CS[C@H]12)c1nsc(N)n1`, the activity change, negative = inhibition was -10.2%.
Still for that read-out and setting: the figure for `CN(C)[C@@H]1C(=O)C(C(=O)NCN2CCCC2)=C(O)[C@@]2(O)C(=O)C3=C(O)c4c(O)cccc4[C@@](C)(O)C3C[C@@H]12` (stereo not given in full) is -13.9%.
Take `O=C(Cc1ccccc1)NC(=S)Nc1ccc(OC(F)F)cc1`: the Potency was active: 35.5 µM.
In the case of `CCc1ccccc1NC(=S)/N=C(\N)Nc1nc(C)c2cc(C)ccc2n1`, the Potency is active: 35.5 µM.
The same measure, in the same setting: the figure for `COc1cc(C2CC(=O)N3CN(c4cccc(Cl)c4)CSC3=C2C#N)ccc1O` (stereo not given) is active: 17.8 µM.
Turning to `NCc1ccccc1Sc1ccccc1CO`, the activity change, negative = inhibition is -46%.
Take `CC(=O)N[C@@H](CS)C(=O)O`: the activity change, negative = inhibition was -39.6%.
For the compound `CC(C)CCCC(C)N` (stereo not given), the activity change, negative = inhibition was -11.5%.
Take `CN(C)CCn1nnnc1SCC1=C(C(=O)O)N2C(=O)[C@@H](NC(=O)Cc3csc(N)n3)[C@H]2SC1`: the activity change, negative = inhibition amounted to 60.1%.
As to `COc1cccc(C(=O)/C(C#N)=C\c2ccccc2C(F)(F)F)c1`, the Potency is active: 39.8 µM.
Take `CCCCCC(=O)O[C@]1(C(C)=O)CC[C@H]2[C@@H]3CCC4=CC(=O)CC[C@]4(C)[C@H]3CC[C@@]21C`: the activity change, negative = inhibition was found to be 19.2%.
Same read-out and setting: under `CNCCCC12CCC(c3ccccc31)c1ccccc12` stands 13.3%.
Take `O=C(c1cccc(Cl)c1)N1CCC(c2nn(-c3ccc(Cl)cc3)c(=O)[nH]2)CC1`: the Potency was active: 14.1 µM.
As to `CCN(CC)C(=O)/C(C#N)=C/c1cc(O)c(O)c([N+](=O)[O-])c1`, the activity change, negative = inhibition is -7.97%.
